This assay concerns CD2F1 mice, L1210 leukemia ip, survival T/C. Description: NCI In Vivo Anticancer Drug Screen. Data for tumor model L1210 Leukemia (intraperitoneal) in CD2F1 (CDF1) mice. To be noted: higher T/C = longer survival. The method in brief: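 Mice carrying a transplanted tumor received test compound or vehicle alone. The value is the measurement in the treated group divided by that in the vehicle-treated control group.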

The mark [1] stands for this setting: T/C endpoint: mean survival time, dose: 25.0 mg/kg/injection, schedule: Q01DX009 (ip), vehicle: saline.
[2] abbreviates: T/C endpoint: mean survival time, dose: 200.0 mg/kg/injection, schedule: Q01DX009 (ip), vehicle: saline with Tween-80.
[3] abbreviates: T/C endpoint: mean survival time, dose: 400.0 mg/kg/injection, schedule: Q01DX009 (ip), vehicle: saline with Tween-80.
The mark [4] stands for this setting: T/C endpoint: mean survival time, dose: 400.0 mg/kg/injection, schedule: Q01DX009 (ip), vehicle: other.
[5] abbreviates: T/C endpoint: mean survival time, dose: 600.0 mg/kg/injection, schedule: Q01DX009 (ip), vehicle: other.
The mark [6] stands for this setting: T/C endpoint: mean survival time, dose: 100.0 mg/kg/injection, schedule: Q04DX003 (ip), vehicle: saline.
Where [7] appears, read: T/C endpoint: mean survival time, dose: 400.0 mg/kg/injection, schedule: Q04DX003 (ip), vehicle: saline.
[8] abbreviates: T/C endpoint: mean survival time, dose: 200.0 mg/kg/injection, schedule: Q04DX003 (ip), vehicle: saline with Tween-80.
[9] abbreviates: T/C endpoint: mean survival time, dose: 400.0 mg/kg/injection, schedule: Q04DX003 (ip), vehicle: saline with Tween-80.

The list is a part of this screen's results and no random one: it gathers tests that were run many times, whatever their T/C, doses with no T/C, and many T/C values between a quarter and a half above the control. Further doses and runs are listed elsewhere. T/C: endpoint of the treated group in % of that of the vehicle group. Some doses have a count of surviving animals in place of a T/C: the source files T/C as zero there, which appears to mark a toxic dose or a test without result, not a measured value. Some doses without a T/C left all or most animals alive at the check, yet need not have been tolerated: the source hardly ever lists a survival T/C far under the control, and the zero likely stands for such cases as well. Counts of survivors are from the toxicity check (mostly the fifth day) where no day follows; animals may have died later. Schedule codes are those of the source, read here as Q, the interval in days (D) or hours (H), X, the number of doses. For survival time, this PubChem deposit counts one and a half times the control or more as active, and values a quarter to a half above the control carry no call in these data; other NCI protocols may use other cut-offs. Some doses were run more than once; their values stand side by side, smallest first. Some T/C values carry the count of animals alive at the toxicity check (mostly the fifth day); where none is given, no animal had died by that day.

In the case of `C=C(NC(=O)C(=C)NC(=O)c1csc(C2=NC3c4csc(n4)C4NC(=O)c5csc(n5)C(C(C)(O)C(C)O)NC(=O)C5CSC(=N5)/C(=C/C)NC(=O)C(C(C)O)NC(=O)c5csc(n5)C3(CC2)NC(=O)C(C)NC(=O)C(=C)NC(=O)C(=C)NC(=O)C(C(C)C)NC2C=Cc3c(C(C)O)cc(nc3C2O)C(=O)OC4C)n1)C(N)=O` (centres undefined), the T/C was 125 % of control under setting [1]; 131 % of control (T/C endpoint: mean survival time, dose: 50.0 mg/kg/injection, schedule: Q01DX009 (ip), vehicle: saline); 137 % of control (T/C endpoint: mean survival time, dose: 100.0 mg/kg/injection, schedule: Q01DX009 (ip), vehicle: saline).
As for `C/C(=N\N=C(/[Se])N1CC2CCC(CC2)C1)c1ccccn1`, the T/C (T/C endpoint: median survival time, dose: 6.25 mg/kg/injection, schedule: Q01DX009 (ip), vehicle: Klucel (hydroxypropylcellulose) (HPC)) is 125 % of control. In addition, the survivor count runs as follows: (T/C endpoint: median survival time, dose: 12.5 mg/kg/injection, schedule: Q01DX009 (ip), vehicle: Klucel (hydroxypropylcellulose) (HPC)) 6 of 6; (T/C endpoint: median survival time, dose: 25.0 mg/kg/injection, schedule: Q01DX009 (ip), vehicle: Klucel (hydroxypropylcellulose) (HPC)) 1 of 6.
For the compound `O/N=C(\c1ccccc1)C1C(/C(=N/O)c2ccccc2)C1c1ccccc1` (centres undefined), for the setting “T/C endpoint: mean survival time, dose: 200.0 mg/kg/injection, schedule: Q04DX002 (ip), vehicle: saline with Tween-80”, the survivor count is reported as 3 of 3.
In the case of `CC(=O)Oc1ccc(CC2N=C(c3ccccc3)OC2=O)cc1` (centres undefined), the survivor count under setting [2] is on record as 3 of 3.
Consider `O=C(/C=C/C=C/c1ccccc1)c1ccc(Cl)cc1`, for which the survivor count (T/C endpoint: mean survival time, dose: 132.0 mg/kg/injection, schedule: Q04DX003 (ip), vehicle: saline with Tween-80) is given as 6 of 6.
Take `NC(CCl)=NCC12CC3CC(CC(C3)C1)C2`: under “T/C endpoint: median survival time, dose: 48.0 mg/kg/injection, schedule: Q01DX009 (ip), vehicle: Klucel (hydroxypropylcellulose) (HPC)”, the survivor count was 5 of 6.
Turning to `COc1cccc2c1C(=O)c1c(O)c3c(c(O)c1C2=O)CC(O)(/C(C)=N/NC(=O)CCC(=O)N/N=C(\C)C1(O)Cc2c(O)c4c(c(O)c2C(OC2CC(N)C(O)C(C)O2)C1)C(=O)c1c(OC)cccc1C4=O)CC3OC1CC(N)C(O)C(C)O1` (centres undefined), the T/C runs as follows: (T/C endpoint: mean survival time, dose: 6.25 mg/kg/injection, schedule: Q01DX009 (ip), vehicle: water) 127 % of control; (T/C endpoint: mean survival time, dose: 12.5 mg/kg/injection, schedule: Q01DX009 (ip), vehicle: water) 145 % of control. Where the note is “T/C endpoint: mean survival time, dose: 25.0 mg/kg/injection, schedule: Q01DX009 (ip), vehicle: water”, the survivor count is given as 6 of 6.
As for `O=P(O)(O)OCC(O)CO.[NH-]C1CCCCC1[NH-].[Pt+2]` (centres undefined), the T/C is 127 % of control (T/C endpoint: mean survival time, dose: 2.35 mg/kg/injection, schedule: Q04DX003 (ip), vehicle: other) and 143 % of control (T/C endpoint: mean survival time, dose: 4.69 mg/kg/injection, schedule: Q04DX003 (ip), vehicle: other).
Regarding `Cc1nc(N)[nH]c(=O)c1NC(=O)c1ccc(N=[N+]=[N-])cc1`, the survivor count (T/C endpoint: mean survival time, dose: 100.0 mg/kg/injection, schedule: Q01DX001 (ip), vehicle: saline with Tween-80) is 6 of 6; the survivor count (T/C endpoint: mean survival time, dose: 200.0 mg/kg/injection, schedule: Q01DX001 (ip), vehicle: saline with Tween-80) is reported as 6 of 6; the survivor count (T/C endpoint: mean survival time, dose: 400.0 mg/kg/injection, schedule: Q01DX001 (ip), vehicle: saline with Tween-80) is reported as 6 of 6.
With `COc1ccc(NC(=O)Nc2ccc(C)cc2C)cc1`, the survivor count under setting [3] is reported as 6 of 6.
Consider `CCC1(O)C(=O)OCc2c1cc1n(c2=O)Cc2cc3cc(C)ccc3nc2-1` (centres undefined), for which, under “T/C endpoint: median survival time, dose: 80.0 mg/kg/injection, schedule: Q04DX002 (ip), vehicle: saline with Tween-80”, the T/C is 147 % of control.
On to `CCCc1cc(C(C)=O)c[n+](C2OC(COC(=O)c3ccccc3)C(OC(=O)c3ccccc3)C2O)c1` (centres undefined), for which the survivor count was 3 of 6 (T/C endpoint: mean survival time, dose: 100.0 mg/kg/injection, schedule: Q01DX005 (ip), vehicle: distilled water + Tween-80) and 1 of 6 (T/C endpoint: mean survival time, dose: 200.0 mg/kg/injection, schedule: Q01DX005 (ip), vehicle: distilled water + Tween-80).
With `CCN(CC)CCOCCO`, where the note is “T/C endpoint: mean survival time, dose: 400.0 mg/kg/injection, schedule: Q01DX009 (ip), vehicle: saline”, the survivor count is reported as 3 of 6.
For `O=C1c2ccccc2C(=O)N1CNc1ccc(Cl)cn1`, the survivor count under setting [2] is given as 6 of 6.
Consider `O[Si](O)([O][Sn]([c]1ccccc1)([c]1ccccc1)[c]1ccccc1)[O][Sn]([c]1ccccc1)([c]1ccccc1)[c]1ccccc1`, for which the survivor count under setting [1] is given as 0 of 3.
In the case of `CC(O)CNCCNC(=O)CNC(=O)C=[N+]=[N-]` (centres undefined), the T/C was 132 % of control under setting [4] and 132 % of control under setting [5]. Moreover, the survivor count is given as 6 of 6 under setting [4]; 6 of 6 under setting [5]; 6 of 6 (T/C endpoint: mean survival time, dose: 800.0 mg/kg/injection, schedule: Q01DX009 (ip), vehicle: other); 6 of 6 (T/C endpoint: mean survival time, dose: 1000.0 mg/kg/injection, schedule: Q01DX009 (ip), vehicle: other).
Take `Cn1nc(-c2ccccc2)nc1[N+](=O)[O-]`: the T/C (T/C endpoint: mean survival time, dose: 25.0 mg/kg/injection, schedule: Q01DX009 (ip), vehicle: saline with Tween-80) was 125 % of control.
As for `CCN(CC)c1ccc(N)cc1`, the survivor count under setting [6] was 0 of 6; the survivor count (T/C endpoint: mean survival time, dose: 200.0 mg/kg/injection, schedule: Q04DX003 (ip), vehicle: saline) was 0 of 6; the survivor count under setting [7] is given as 0 of 6.
For `COc1ccc(C(O)(c2ccccc2)C(O)c2ccccc2)cc1` (centres undefined), the survivor count runs as follows: (T/C endpoint: mean survival time, dose: 100.0 mg/kg/injection, schedule: Q04DX003 (ip), vehicle: saline with Tween-80) 6 of 6; under setting [8], 6 of 6.
On to `OCC1OC(Nc2ncnc3snnc23)C(O)C1O` (centres undefined), for which the T/C is, setting by setting: (T/C endpoint: mean survival time, dose: 100.0 mg/kg/injection, schedule: Q01DX001 (ip), vehicle: saline) 128 % of control; under setting [6], 140 % of control; (T/C endpoint: mean survival time, dose: 200.0 mg/kg/injection, schedule: Q01DX001 (ip), vehicle: saline) 125 % of control; (T/C endpoint: mean survival time, dose: 400.0 mg/kg/injection, schedule: Q01DX001 (ip), vehicle: saline) 136 % of control [2 of 2 alive].
As to `CCCCCCCCCCCCCC[N+](C)(C)CC#CC[N+](C)(C)CCCCCCCCCCCCCC`, the survivor count (T/C endpoint: mean survival time, dose: 100.0 mg/kg/injection, schedule: Q04DX002 (ip), vehicle: saline with Tween-80) is listed as 0 of 3.
For the compound `N#CCC(=O)N/N=C/c1ccccc1`, under setting [3], the survivor count was 0 of 3.
As to `CCN(CC)Cc1cc(O)ccc1NCCCNc1ccnc2cc(Cl)ccc12`, the survivor count is on record as 1 of 6 under setting [8] and 0 of 6 under setting [9].
Take `COC(=O)C(Cl)c1ccc2c(c1)OCO2` (centres undefined): the survivor count by setting is: under setting [2], 2 of 6; under setting [9], 4 of 6.
Turning to `CN1CCC(CO)C1` (centres undefined), the survivor count by setting is: (T/C endpoint: mean survival time, dose: 400.0 mg/kg/injection, schedule: Q01DX009 (ip), vehicle: water) 1 of 6; under setting [7], 0 of 6.
For `CC(C)=CC(=O)OC1C2C(C)=CC(=O)C(O)C2(C)C2C3(O)OCC24C(CC(=O)OC14)C(C)C3O` (centres undefined), the T/C is 128 % of control (T/C endpoint: mean survival time, dose: 0.25 mg/kg/injection, schedule: Q01DX009 (ip), vehicle: saline with Tween-80); 133 % of control [5 of 6 alive] (T/C endpoint: mean survival time, dose: 0.5 mg/kg/injection, schedule: Q01DX009 (ip), vehicle: saline with Tween-80); 133 % of control (T/C endpoint: mean survival time, dose: 1.0 mg/kg/injection, schedule: Q01DX009 (ip), vehicle: saline with Tween-80); 130 % of control [4 of 6 alive] (T/C endpoint: mean survival time, dose: 2.0 mg/kg/injection, schedule: Q01DX009 (ip), vehicle: distilled water + Tween-80); 125 % of control (T/C endpoint: median survival time, dose: 0.25 mg/kg/injection, schedule: Q01DX009 (ip), vehicle: distilled water + Tween-80 + alcohol); 132 and 138 % of control (T/C endpoint: median survival time, dose: 0.5 mg/kg/injection, schedule: Q01DX009 (ip), vehicle: distilled water + Tween-80 + alcohol). Also, the T/C is 130, 134, 141 % of control (T/C endpoint: median survival time, dose: 1.0 mg/kg/injection, schedule: Q01DX009 (ip), vehicle: distilled water + Tween-80 + alcohol); 139 and 144 % of control (T/C endpoint: median survival time, dose: 2.0 mg/kg/injection, schedule: Q01DX009 (ip), vehicle: distilled water + Tween-80 + alcohol). In addition, the survivor count (T/C endpoint: median survival time, dose: 4.0 mg/kg/injection, schedule: Q01DX009 (ip), vehicle: distilled water + Tween-80 + alcohol) is reported as 4 of 6.
As to `CCCCCC(CN(C)C)C(/C=C/c1ccccc1)OC(=O)c1ccc([N+](=O)[O-])cc1` (centres undefined), the survivor count under setting [3] was 3 of 6.

The values are drawn from PubChem BioAssay AID256 (DTP/NCI, 2004).
